Results published in paper PMC12395558.
No constants are given. Whether binding was seen depends on the method and setting. In cells and extracts the contact can be indirect. Some entries that bind do so weakly or less than the wild type. For some assays here: Sequences can lack the tags named with a protein. Values belong to the molecule of their own block, whether it stands above or below them.

The chains behind the UniProt entries cited, without tags or fusion partners.
UniProt Q09472: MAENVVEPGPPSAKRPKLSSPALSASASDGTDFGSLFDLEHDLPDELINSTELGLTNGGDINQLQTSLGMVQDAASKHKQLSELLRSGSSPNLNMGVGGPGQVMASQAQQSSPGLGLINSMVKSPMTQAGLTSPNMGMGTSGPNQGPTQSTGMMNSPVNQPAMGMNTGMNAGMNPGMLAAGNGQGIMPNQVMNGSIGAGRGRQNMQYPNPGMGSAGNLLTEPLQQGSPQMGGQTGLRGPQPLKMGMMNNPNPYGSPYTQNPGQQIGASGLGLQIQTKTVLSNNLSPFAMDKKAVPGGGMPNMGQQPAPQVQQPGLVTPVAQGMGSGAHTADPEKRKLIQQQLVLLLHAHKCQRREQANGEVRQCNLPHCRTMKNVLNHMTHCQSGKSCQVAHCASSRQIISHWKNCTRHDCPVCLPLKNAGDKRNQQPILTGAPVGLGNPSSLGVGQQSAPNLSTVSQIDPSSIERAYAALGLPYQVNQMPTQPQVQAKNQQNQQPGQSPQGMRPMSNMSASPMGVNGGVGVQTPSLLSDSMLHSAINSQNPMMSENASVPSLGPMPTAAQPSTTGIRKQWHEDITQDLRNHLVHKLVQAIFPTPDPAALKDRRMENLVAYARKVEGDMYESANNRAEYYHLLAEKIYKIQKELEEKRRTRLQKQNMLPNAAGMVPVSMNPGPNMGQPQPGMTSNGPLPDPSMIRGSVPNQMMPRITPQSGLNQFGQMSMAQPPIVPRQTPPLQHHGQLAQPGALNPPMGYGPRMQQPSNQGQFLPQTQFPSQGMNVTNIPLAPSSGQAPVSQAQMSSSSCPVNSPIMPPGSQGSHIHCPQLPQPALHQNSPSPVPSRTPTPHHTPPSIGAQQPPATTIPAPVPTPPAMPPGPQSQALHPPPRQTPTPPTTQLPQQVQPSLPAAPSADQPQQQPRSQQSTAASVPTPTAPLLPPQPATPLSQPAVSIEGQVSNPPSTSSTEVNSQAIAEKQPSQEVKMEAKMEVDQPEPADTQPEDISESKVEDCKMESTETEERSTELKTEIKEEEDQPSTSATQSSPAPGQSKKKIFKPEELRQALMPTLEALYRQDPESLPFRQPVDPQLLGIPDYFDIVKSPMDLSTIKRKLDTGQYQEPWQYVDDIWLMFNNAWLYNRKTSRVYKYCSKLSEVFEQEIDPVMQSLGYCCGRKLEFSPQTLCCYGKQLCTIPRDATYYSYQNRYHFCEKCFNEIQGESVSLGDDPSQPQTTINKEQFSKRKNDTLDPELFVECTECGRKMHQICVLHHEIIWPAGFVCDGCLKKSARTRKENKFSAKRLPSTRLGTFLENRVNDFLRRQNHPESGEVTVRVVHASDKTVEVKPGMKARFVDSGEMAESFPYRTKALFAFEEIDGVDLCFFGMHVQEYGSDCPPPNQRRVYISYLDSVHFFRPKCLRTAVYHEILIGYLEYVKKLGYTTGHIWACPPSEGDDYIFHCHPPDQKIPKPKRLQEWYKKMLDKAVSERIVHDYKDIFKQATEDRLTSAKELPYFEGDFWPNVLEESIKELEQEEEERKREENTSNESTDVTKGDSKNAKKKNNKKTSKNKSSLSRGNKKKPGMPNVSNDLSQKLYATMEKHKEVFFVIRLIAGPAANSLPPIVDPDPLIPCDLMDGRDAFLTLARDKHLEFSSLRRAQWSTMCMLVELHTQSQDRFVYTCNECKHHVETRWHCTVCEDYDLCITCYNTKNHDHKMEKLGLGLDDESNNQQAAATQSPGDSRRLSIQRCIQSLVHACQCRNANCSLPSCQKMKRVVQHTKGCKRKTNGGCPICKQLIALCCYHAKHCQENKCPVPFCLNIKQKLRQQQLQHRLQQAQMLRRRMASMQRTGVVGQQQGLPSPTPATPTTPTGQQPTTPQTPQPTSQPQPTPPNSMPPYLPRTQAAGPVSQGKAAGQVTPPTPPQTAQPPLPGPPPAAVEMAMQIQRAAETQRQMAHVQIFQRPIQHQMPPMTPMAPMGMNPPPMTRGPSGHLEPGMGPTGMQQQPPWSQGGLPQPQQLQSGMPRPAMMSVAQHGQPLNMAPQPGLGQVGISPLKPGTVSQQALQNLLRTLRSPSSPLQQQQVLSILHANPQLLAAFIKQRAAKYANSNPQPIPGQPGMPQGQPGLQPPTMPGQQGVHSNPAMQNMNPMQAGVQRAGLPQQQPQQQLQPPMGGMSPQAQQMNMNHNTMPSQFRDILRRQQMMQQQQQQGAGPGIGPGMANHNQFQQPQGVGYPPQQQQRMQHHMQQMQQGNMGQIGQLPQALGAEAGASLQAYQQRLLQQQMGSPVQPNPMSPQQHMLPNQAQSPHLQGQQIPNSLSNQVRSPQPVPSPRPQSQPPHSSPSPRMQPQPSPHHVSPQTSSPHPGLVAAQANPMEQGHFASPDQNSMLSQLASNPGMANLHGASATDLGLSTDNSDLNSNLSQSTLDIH
UniProt Q13547: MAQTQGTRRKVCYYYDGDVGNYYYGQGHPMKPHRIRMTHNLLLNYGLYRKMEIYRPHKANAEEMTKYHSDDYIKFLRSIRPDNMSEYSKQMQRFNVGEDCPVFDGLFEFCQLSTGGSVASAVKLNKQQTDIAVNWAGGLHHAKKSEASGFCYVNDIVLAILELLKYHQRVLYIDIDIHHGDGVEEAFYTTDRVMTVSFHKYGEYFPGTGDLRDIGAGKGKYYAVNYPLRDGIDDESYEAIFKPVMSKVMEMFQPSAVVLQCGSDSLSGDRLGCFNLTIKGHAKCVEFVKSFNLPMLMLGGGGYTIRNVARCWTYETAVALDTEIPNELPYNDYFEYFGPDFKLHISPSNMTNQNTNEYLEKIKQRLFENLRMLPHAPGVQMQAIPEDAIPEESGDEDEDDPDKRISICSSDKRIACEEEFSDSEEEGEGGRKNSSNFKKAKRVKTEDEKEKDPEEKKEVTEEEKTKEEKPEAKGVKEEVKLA

Assays:
[1] = biological target: T1, V5-GCDH (glutaryl-CoA dehydrogenase), expressed in HEK293T cells (UniProt Q92947); test: co-IP; HEK293T cells cotransfected with the tagged proteins; lysates with specific antibodies overnight at 4 °C, protein A/G agarose beads, washed 3 times with lysis buffer, Western blot
T1 sequence: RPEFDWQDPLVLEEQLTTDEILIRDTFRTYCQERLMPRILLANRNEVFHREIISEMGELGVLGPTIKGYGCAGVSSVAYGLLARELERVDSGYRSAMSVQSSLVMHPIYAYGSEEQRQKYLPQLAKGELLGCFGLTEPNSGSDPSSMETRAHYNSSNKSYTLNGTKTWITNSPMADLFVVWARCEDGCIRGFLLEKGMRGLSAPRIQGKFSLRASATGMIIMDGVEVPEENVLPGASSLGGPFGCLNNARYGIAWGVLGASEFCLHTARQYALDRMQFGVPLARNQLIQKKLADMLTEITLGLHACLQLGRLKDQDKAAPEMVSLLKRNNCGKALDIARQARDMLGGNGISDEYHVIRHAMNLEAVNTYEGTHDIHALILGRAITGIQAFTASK

[2] = biological target: T2, Endogenous GCDH of Huh7 cells (human (endogenous in Huh7)) (UniProt Q92947); test: co-IP; Huh7 cells transfected with V5-HDAC1, endogenous GCDH; antibodies overnight at 4 °C, protein A/G agarose beads, Western blot
T2 sequence: T1 sequence

[3] = biological target: Flag-P300, expressed in HEK293T cells (UniProt Q09472); test: co-IP; HEK293T cells cotransfected with the tagged proteins; lysates with specific antibodies overnight at 4 °C, protein A/G agarose beads, washed 3 times with lysis buffer, Western blot
[4] = biological target: Endogenous P300 of MHCC-97H cells (human (endogenous in MHCC-97H)) (UniProt Q09472); test: co-IP; MHCC-97H cell lysate, endogenous proteins by the text; antibodies overnight at 4 °C, protein A/G agarose beads, Western blot
GST-HDAC1 fusion protein = GST-HDAC1 fusion protein (UniProt Q13547); test: pull-down; GST fusion protein coupled to Glutathione-Sepharose 4B beads, incubated with GCDH overexpression MHCC-97H whole-cell lysates for 2 h at 4 °C, washed 3 times, Western blot; only the target purified

B1: V5-GCDH (glutaryl-CoA dehydrogenase), expressed in HEK293T cells (protein, UniProt Q92947 45-438)
chain: T1 sequence
binding [3]: binds

B2: Endogenous GCDH of MHCC-97H cells (protein, UniProt Q92947 45-438)
chain: T1 sequence
binding [4]: binds

B3: GCDH overexpressed in MHCC-97H cells (protein, UniProt Q92947 45-438)
chain: T1 sequence
binding (GST-HDAC1 fusion protein): binds

The next lines start with the values.

binding [1]: binds
Molecule: V5-HDAC1, expressed in HEK293T cells (from UniProt Q13547 1-482)

binding [2]: binds
Molecule: V5-HDAC1, expressed in Huh7 cells (from UniProt Q13547 1-482)
